From patent US20250129145A1 (Ablynx, published 2025)
No constants are given. Whether binding was seen depends on the method and setting. Some entries that bind do so weakly or less than the wild type.

Protein sequences, listed by entry. Tags and fused reporters are not part of them. Residues count along the entry.
UniProt P02768, residues 25-609: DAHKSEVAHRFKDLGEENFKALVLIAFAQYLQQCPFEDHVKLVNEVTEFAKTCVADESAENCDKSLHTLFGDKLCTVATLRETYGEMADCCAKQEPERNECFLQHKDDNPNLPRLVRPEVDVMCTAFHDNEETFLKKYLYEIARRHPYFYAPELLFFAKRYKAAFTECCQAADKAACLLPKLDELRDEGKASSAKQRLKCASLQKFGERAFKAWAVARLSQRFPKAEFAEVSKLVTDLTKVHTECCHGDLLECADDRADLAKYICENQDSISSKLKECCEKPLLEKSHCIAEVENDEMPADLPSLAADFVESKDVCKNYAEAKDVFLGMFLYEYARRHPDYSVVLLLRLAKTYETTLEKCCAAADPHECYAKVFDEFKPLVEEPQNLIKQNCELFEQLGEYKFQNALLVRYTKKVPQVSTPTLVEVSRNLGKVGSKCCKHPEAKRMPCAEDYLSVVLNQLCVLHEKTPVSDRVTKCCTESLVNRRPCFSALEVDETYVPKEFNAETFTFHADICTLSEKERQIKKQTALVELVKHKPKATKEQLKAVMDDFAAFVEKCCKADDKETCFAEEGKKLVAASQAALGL

Molecular target: T1, human serum albumin (human, UniProt P02768 25-609)
T1 construct: Bought protein; also called HSA
Test: SPR Biacore 8K+, pH 7.4; construct captured on immobilized target X

binding	Binder
binds	T026301360 (VHH, not shown: large carriers; small tags and cut ends, Tetravalent ISVD fusion protein made in P. pastoris; X and Y are undisclosed target ISVDs; also called X-9GS-Y-9GS-ALB23002-9GS-Alb223; X-Y-Alb23002-Alb223) EVQLVESGGGVVQPGGSLRLSCAASGFTFRSFGMSWVRQAPGKGPEWVSSISGSGSDTLYADSVKGRFTISRDNSKNTLYLQMNSLRPEDTALYYCTIGGSLSRSSQGTLVTVSSGGGGSGGGSEVQLVESGGGVVQPGGSLRLSCAASGFTFRSFGMSWVRQAPGKGPEWVSSISGSGSDTLYADSVKGRFTISRDNSKNTLYLQMNSLRPEDTALYYCTIGGSLSRSSQGTLVTVSSA
binds	T026301365 (VHH, not shown: large carriers; small tags and cut ends, Tetravalent ISVD fusion protein made in P. pastoris; X and Y are undisclosed target ISVDs; also called X-9GS-Y-9GS-ALB23002-35GS-Alb223) EVQLVESGGGVVQPGGSLRLSCAASGFTFRSFGMSWVRQAPGKGPEWVSSISGSGSDTLYADSVKGRFTISRDNSKNTLYLQMNSLRPEDTALYYCTIGGSLSRSSQGTLVTVSSGGGGSGGGGSGGGGSGGGGSGGGGSGGGGSGGGGSEVQLVESGGGVVQPGGSLRLSCAASGFTFRSFGMSWVRQAPGKGPEWVSSISGSGSDTLYADSVKGRFTISRDNSKNTLYLQMNSLRPEDTALYYCTIGGSLSRSSQGTLVTVSSA
binds	T026301370 (VHH, not shown: large carriers; small tags and cut ends) EVQLVESGGGVVQPGGSLRLSCAASGFTFRSFGMSWVRQAPGKGPEWVSSISGSGSDTLYADSVKGRFTISRDNSKNTLYLQMNSLRPEDTALYYCTIGGSLSRSSQGTLVTVSSGGGGSGGGGSGGGGSGGGGSEVQLVESGGGVVQPGGSLRLSCAASGFTFRSFGMSWVRQAPGKGPEWVSSISGSGSDTLYADSVKGRFTISRDNSKNTLYLQMNSLRPEDTALYYCTIGGSLSRSSQGTLVTVSSA
